Assays:
[1] = test system: DNA of HeLa cells; experiment: pH dependence of platinum incorporation into DNA (neutron activation); type: cell-based, Human; settings: 16 hours
[2] = test system: HeLa cells; experiment: pH dependence of platinum incorporation, total cells (neutron activation); type: cell-based, Human; settings: 4 hours

SMILES	Platinum content DNA ([1]; pH 6.8, 33 μM)	Platinum content DNA ([1]; pH 7.4, 33 μM)	Platinum content total cells ([2]; pH 6.8, 33 μM)	Platinum content total cells ([2]; pH 7.4, 33 μM)
CCOC1=[S+][Pt-2]2([S]1)[S]C(OCC)=[S+]2 [Example 1, bis-[O-ethyldithiocarbanato]Platinum (II)]	13870 ng/mg	1760 ng/mg	4780 ng/10^7 cells	3680 ng/10^7 cells
N.N.[Cl][Pt][Cl] [cisplatin]	14.6 ng/mg	140 ng/mg	140 ng/10^7 cells	156 ng/10^7 cells

From patent US6881751B2, “Medicament containing platinum complex compounds and the use thereof” (Ruprecht Karls Universitat, priority 1998, dated 2005)
